Experimental data published in patent US11104648B2, “Pyrazole derivative” (Zhejiang Research Institute of Chemical Industry Co., Ltd., priority 2018, dated 2021).
Some of these results come from one statement about several compounds together.

Experiments:
Assay type in all cases: in vivo
[1] = test system: Eggs of Tetranychus Cinnabarinus; assay: Activity assay of eggs of Tetranychus cinnabarinus (spray method, ovicidal); conditions: concentration 5 mg/L, non-incubated eggs counted as dead
Summary of the method: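 Ovicidal spray test: compound dissolved in DMF, diluted with 1‰ Tween 80 (DMF ≤10%), sprayed on eggs laid during 24 h by females on broad bean leaves. Culture at 26±2° C, 70–80% RH, 16 h photoperiod; non-hatched eggs scored as dead when blank control hatched; three repeats.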

[2] = test system: adult Tetranychus cinnabarinus; assay: Activity assay of adult Tetranychus cinnabarinus (whole-plant spray on bean seedlings); conditions: concentration 2.5 mg/L; 48 h
Summary of the method: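 Whole plants sprayed after adult mite inoculation and initial census, using compound dissolved in DMF and made up with 1‰ Tween 80 water (DMF not above 10%). Mortality derived from survivor counts at 48 h after treatment. Each treatment run in triplicate.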

[3] = test system: Tetranychus cinnabarinus Nymphs; assay: Activity assay of Tetranychus cinnabarinus nymphs (spray on broad bean leaves); conditions: concentration 2.5 mg/L; 48 h
Summary of the method: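 Mortality, judged as no response to gentle touch, was scored 48 h after spraying Tetranychus cinnabarinus nymphs on broad bean leaves (eggs from females removed after 24 h). Test solutions: DMF-dissolved compound, ≤10% DMF, in 1‰ Tween 80; 26±2° C., 70%–80% RH, 16 h light; triplicate, blank control.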

C=CCOC(=O)OCO/C(=C(/C#N)c1ccc(C(C)(C)C)cc1)c1c(Cl)c(C)nn1C [Compound 666]
ovicidal activity [1]: ≥ 90% | adult mite-killing activity [2]: ≥ 90% | nymph-killing activity [3]: ≥ 95%

CCn1nc(C)c(Cl)c1/C(OCOC(=O)OCC(C)C)=C(\C#N)c1ccc(C(C)(C)C)cc1 [Compound 745]
ovicidal activity [1]: ≥ 90% | adult mite-killing activity [2]: ≥ 90% | nymph-killing activity [3]: ≥ 95%

CCCOC(=O)OC(C)O/C(=C(/C#N)c1ccc(C(C)(C)C)cc1)c1c(C)c(C)nn1C (racemic) [Compound 869]
ovicidal activity [1]: ≥ 90% | adult mite-killing activity [2]: ≥ 90% | nymph-killing activity [3]: ≥ 95%

CCOC(=O)OCO/C(=C(/C#N)c1ccc(C(C)(C)C)cc1)c1c(C)c(C)nn1C [Compound 836]
ovicidal activity [1]: ≥ 90% | adult mite-killing activity [2]: ≥ 90% | nymph-killing activity [3]: ≥ 95%

C#CCOC(=O)OCO/C(=C(/C#N)c1ccc(C(C)(C)C)cc1)c1c(Cl)c(C)nn1C [Compound 668]
ovicidal activity [1]: ≥ 90% | adult mite-killing activity [2]: ≥ 90% | nymph-killing activity [3]: ≥ 95%

CCn1nc(C)c(C)c1/C(OCOC(=O)OCCSC)=C(\C#N)c1ccc(C(C)(C)C)cc1 [Compound 951]
ovicidal activity [1]: ≥ 90% | adult mite-killing activity [2]: ≥ 90% | nymph-killing activity [3]: ≥ 95%

CCn1nc(C)c(C)c1/C(OCOC(=O)OCC(F)(F)F)=C(\C#N)c1ccc(C(C)(C)C)cc1 [Compound 947]
ovicidal activity [1]: ≥ 90% | adult mite-killing activity [2]: ≥ 90% | nymph-killing activity [3]: ≥ 95%

Cc1nn(C)c(/C(OC(C)OC(=O)OCCC(C)C)=C(\C#N)c2ccc(C(C)(C)C)cc2)c1Cl (racemic) [Compound 682]
ovicidal activity [1]: ≥ 90% | adult mite-killing activity [2]: ≥ 90% | nymph-killing activity [3]: ≥ 95%

CCC(OC(=O)CSCC(F)(F)F)O/C(=C(/C#N)c1ccc(C(C)(C)C)cc1)c1cc(C)nn1C (racemic) [Compound 72]
ovicidal activity [1]: ≥ 90% | adult mite-killing activity [2]: ≥ 90% | nymph-killing activity [3]: ≥ 95%

CCC(OC(=O)C(C)(C)CC)O/C(=C(/C#N)c1ccc(C(C)(C)C)cc1)c1cc(C)nn1C (racemic) [Compound 66]
ovicidal activity [1]: ≥ 90% | adult mite-killing activity [2]: ≥ 90% | nymph-killing activity [3]: ≥ 95%

CCn1nc(C)c(Cl)c1/C(OC(C)OC(=O)OCCOC)=C(\C#N)c1ccc(C(C)(C)C)cc1 (racemic) [Compound 788]
ovicidal activity [1]: ≥ 90% | adult mite-killing activity [2]: ≥ 90% | nymph-killing activity [3]: ≥ 95%

CCCCOC(=O)OCO/C(=C(/C#N)c1ccc(C(C)(C)C)cc1)c1c(Cl)c(C)nn1C [Compound 648]
ovicidal activity [1]: ≥ 90% | adult mite-killing activity [2]: ≥ 90% | nymph-killing activity [3]: ≥ 95%

CCC(OC(=O)c1cccnc1)O/C(=C(/C#N)c1ccc(C(C)(C)C)cc1)c1cc(C)nn1C (racemic) [Compound 71]
ovicidal activity [1]: ≥ 90% | adult mite-killing activity [2]: ≥ 90% | nymph-killing activity [3]: ≥ 95%

Cc1cc(/C(OC(C)OC(=O)C2CCCO2)=C(\C#N)c2ccc(C(C)(C)C)cc2)n(C)n1 (racemic) [Compound 45]
ovicidal activity [1]: ≥ 90% | adult mite-killing activity [2]: ≥ 90% | nymph-killing activity [3]: ≥ 95%

C#CCOC(=O)OCO/C(=C(/C#N)c1ccc(C(C)(C)C)cc1)c1c(C)c(C)nn1CC [Compound 956]
ovicidal activity [1]: ≥ 90% | adult mite-killing activity [2]: ≥ 90% | nymph-killing activity [3]: ≥ 95%

C#CCOC(=O)OC(C)O/C(=C(/C#N)c1ccc(C(C)(C)C)cc1)c1c(C)c(C)nn1CC (stereo not drawn) [Compound 988]
ovicidal activity [1]: ≥ 90% | adult mite-killing activity [2]: ≥ 90% | nymph-killing activity [3]: ≥ 95%
